Data from the supplement of paper PMC3682954.
Several values for one entry are separate records, joined by “and”; a condition that tells them apart may be missing. Equal entries are not always repeated. Structures can show the parent of a compound that is named as a salt. ± gives the standard deviation of the averaged measurements. The list shows a part of the results. Many values rest on one well or one pass, so single values are uncertain.

System: RAW 264.7
Assay: cell viability (MTT) relative to vehicle control; higher = more viable cells
Conditions: stimulus: HMGB1 5 ug/ml, 18 h
[1] = compound concentration: 1 ug/ml

SMILES | cell viability (compound concentration: 3 uM) [%] | cell viability [1]
O=P1(NCCCl)OCCCN1CCCl (stereo not given) [Ifosfamide] | 99.6 ± 1.1 | –
O=P1(NCCCl)OCCCN1CCCl (stereo not given) | 101 ± 4.6 | –
Oc1ccc(Cl)cc1 | 104 | –
CN1CC[C@@]2(C)c3cc(OC(=O)Nc4ccccc4)ccc3N(C)[C@@H]12 [Phenserine] | 99.3 | –
N#CCCN [3-Aminopropionitrile fumarate] | 103 | –
CC(C)c1c(CN(C)C(C)Cc2ccccc2)n(C)n(-c2ccccc2)c1=O (stereo not given) | 113 | –
CC(C)c1c(CN(C)C(C)Cc2ccccc2)n(C)n(-c2ccccc2)c1=O (stereo not given) [Famprofazone] | 109 | –
C=C(C)[C@@H]1[C@H]2OC(=O)[C@@H]1[C@]1(O)C[C@H]3O[C@]34C(=O)O[C@H]2[C@]14C | 99.1 | –
C=C(C)[C@@H]1[C@H]2OC(=O)[C@@H]1[C@]1(O)C[C@H]3O[C@]34C(=O)O[C@H]2[C@]14C [Picrotoxinin] | 109 | 94%
CC(C)NP(=O)(NC(C)C)OP(=O)(NC(C)C)NC(C)C [Tetraisopropyl pyrophosphoramide] | 115 | –
C=CCc1ccccc1OCC(O)CNC1(C)CCC(C(C)(C)NC(=O)CBr)CC1 (stereo not given) [Bromoacetyl alprenolol menthane] | 79.2 | –
CC(=O)OCC(=O)[C@H]1CC[C@H]2[C@@H]3CC[C@H]4C[C@H](O)CC[C@]4(C)[C@H]3C(=O)C[C@]12C [Alfadolone acetate] | 72.4 | –
Cc1c2ccncc2c(C)c2c1[nH]c1ccccc12 [Ellipticine] | 94.7 | –
CC(=O)NBr [N-Bromoacetamide] | 98.4 | –
NC(=O)C[S+]([O-])C(c1ccccc1)c1ccccc1 (stereo not given) | 108 | –
NC(=O)C[S+]([O-])C(c1ccccc1)c1ccccc1 (stereo not given) [Modafinil] | 106 ± 7.9 | –
C=C1[C@@H](C)[C@H]2[C@H](Cc3ccccc3)NC(=O)[C@]23OC(=O)/C=C/[C@H](O)CCC[C@@H](C)C/C=C/[C@H]3[C@@H]1O | 105 | –
CN1CCN(C(=O)OC2c3nccnc3C(=O)N2c2ccc(Cl)cn2)CC1 (stereo not given) [Zopiclone] | 107 | –
CN1CCN(C(=O)OC2c3nccnc3C(=O)N2c2ccc(Cl)cn2)CC1 (stereo not given) | 112 | –
Clc1ccc(C(OCCN2CCCCC2)c2ccccc2)cc1 (stereo not given) | 112 | –
Clc1ccc(C(OCCN2CCCCC2)c2ccccc2)cc1 (stereo not given) [Cloperastine hydrochloride] | 131 | –
C[C@@H](CO)NC(=O)[C@@H]1C=C2c3cccc4[nH]cc(c34)C[C@H]2N(C)C1 | 107 | –
C[C@@H](CO)NC(=O)[C@@H]1C=C2c3cccc4[nH]cc(c34)C[C@H]2N(C)C1 [Ergonovine] | – | 102%
Cc1c(N)nc([C@H](CC(N)=O)NC[C@H](N)C(N)=O)nc1C(=O)N[C@H](C(=O)N[C@H](C)[C@@H](O)[C@H](C)C(=O)N[C@H](C(=O)NCCc1nc(-c2nc(C(=O)NCCC[S+](C)C)cs2)cs1)[C@@H](C)O)[C@@H](OC1OC(CO)C(O)C(O)C1OC1OC(CO)C(O)C(OC(N)=O)C1O)c1cnc[nH]1 (stereo not given in full) [Bleomycin] | 98.2 | –
C[C@]12CC[C@H](O)C[C@H]1CC[C@@H]1[C@@H]2C[C@@H](O)[C@]2(C)[C@@H](C3=CC(=O)OC3)CC[C@]12O [Digoxigenin] | 109 | 98.6%
NCCc1c[nH]c2ccccc12 [Tryptamine hydrochloride] | 104 | –
Clc1ccc(N2C[C@H]3CC[C@@H](C2)N3)nn1 | 99 | –

Copied from the list.
Value for C[C@@H](CO)NC(=O)[C@@H]1C=C2c3cccc4[nH]cc(c34)C[C@H]2N(C)C1 [Ergonovine] under cell viability [1]: 102%
Value for CC(=O)NBr [N-Bromoacetamide] under cell viability (compound concentration: 3 uM) [%]: 98.4
Value for Cc1c2ccncc2c(C)c2c1[nH]c1ccccc12 [Ellipticine] under cell viability (compound concentration: 3 uM) [%]: 94.7

Next part:

SMILES | cell viability (compound concentration: 3 uM) [%] | cell viability [1]
CC(=O)NC1CCSC1=O (racemic) [N-Acetyl-DL-homocysteine Thiolactone] | 107 | –
CC(Cc1ccccc1)NCCC(c1ccccc1)c1ccccc1 (stereo not given) [Prenylamine lactate] | 87.1 | –
O=c1cccc2n1CC1CC2CN(CCO)C1 (stereo not given) | – | 96.2% and 96.3%
Cc1cccc(C)c1NC1=NCCCS1 | 106 | –
Cc1cccc(C)c1NC1=NCCCS1 [Xylazine] | 105 ± 3.9 | –
Cc1cccc(C)c1NC1=NCCCS1 [Xylazine hydrochloride] | 109 | –
COc1cc2c(cc1OC)C1CC(=O)C(CC(C)C)CN1CC2 (stereo not given) [Tetrabenazine] | 115 | –
CCCCC/C=C\C/C=C\C/C=C\C/C=C\CCCC(=O)Nc1ccc(O)cc1 | 92 | –
CCNC(=O)[C@H]1O[C@@H](n2cnc3c(N)ncnc32)[C@H](O)[C@@H]1O [5'-N-Ethylcarboxamidoadenosine] | 94.6 | –
CC1(C)S[C@@H]2[C@H](N)C(=O)N2[C@H]1C(=O)O [(+)-6-Aminopenicillanic acid] | – | 106%
CC(=O)OCC1=C(C(=O)O)N2C(=O)[C@@H](NC(=O)CCC[C@@H](N)C(=O)O)[C@H]2SC1 | 99.2 | –
O=C1CN=C(c2ccccc2)c2cc([N+](=O)[O-])ccc2N1 [Nitrazepam] | 93.2 | –
Cc1ccc(S(=O)(=O)N[C@@H](CCCCN)C(=O)CCl)cc1 [Na-p-Tosyl-L-lysine chloromethyl ketone hydrochloride] | 107 | –
CCCN1CCC[C@@H](c2cccc(O)c2)C1 [S(-)-3PPP hydrochloride] | 103 | –
CN1C(=O)COc2c(C(=O)NC3CN4CCC3CC4)cc(Cl)cc21 (stereo not given) [Azasetron] | 98.2 | –
Cc1ccc(O)cc1.Cc1cccc(O)c1.Cc1ccccc1O | 98.2 | –
CCNC1(c2cccs2)CCCCC1=O (stereo not given) [Tiletamine hydrochloride] | 77.7 | –
C[C@@H]1CC[C@H]2[C@@H](C)C(=O)O[C@@H]3O[C@@]4(C)CC[C@@H]1[C@]32OO4 [Artemisinin] | 96.3 ± 8.8 | 83.1%
C[C@@H]1CC[C@H]2[C@@H](C)C(=O)O[C@@H]3O[C@@]4(C)CC[C@@H]1[C@]32OO4 | 101 | –
CC[C@H]1[C@@H]2C[C@H]3[C@@H]4N(C)c5ccccc5[C@]45C[C@@H]([C@@H]2[C@H]5O)N3[C@@H]1O | 107 | –
CS(=N)(=O)CC[C@H](N)C(=O)O (stereo partly drawn) [L-Methionine sulfoximine] | 102 | –
CCC1(c2cccc(O)c2)CCCCN(C)C1 (stereo not given) [Meptazinol hydrochloride] | 79.2 | –
CNC(C)C(O)c1ccccc1 (stereo not given) | 99.9 | –
CC(C)(C)C(=O)C(Oc1ccc(Cl)cc1)n1cncn1 (stereo not given) | 101 | –
CC[C@H]1CN2CCc3cc(OC)c(OC)cc3[C@@H]2C[C@@H]1C[C@H]1NCCc2cc(OC)c(OC)cc21 | 9.18 ± 2.4 | –
CC[C@H]1CN2CCc3cc(OC)c(OC)cc3[C@@H]2C[C@@H]1C[C@H]1NCCc2cc(OC)c(OC)cc21 [Emetine dihydrochloride hydrate] | 1.64 | –
CC[C@H]1CN2CCc3cc(OC)c(OC)cc3[C@@H]2C[C@@H]1C[C@H]1NCCc2cc(OC)c(OC)cc21 [(+)-Emetine dihydrochloride hydrate] | – | 14.8%

Whole records from above. Values in the order: cell viability (compound concentration: 3 uM) [%] | cell viability [1]
O=P1(NCCCl)OCCCN1CCCl (stereo not given) [Ifosfamide] is listed with 99.6 ± 1.1 | –
CC(=O)NBr [N-Bromoacetamide] is listed with 98.4 | –

Going on with the list:

SMILES | cell viability (compound concentration: 3 uM) [%] | cell viability [1]
COc1cc([C@@H]2c3cc4c(cc3[C@H](O)[C@H]3COC(=O)[C@H]23)OCO4)cc(OC)c1OC [Podophyllotoxin] | 92.9 ± 16 | 78.1%
COc1cc([C@@H]2c3cc4c(cc3[C@H](O)[C@H]3COC(=O)[C@H]23)OCO4)cc(OC)c1OC | 84.5 | –
CCN(C(C)=O)c1cccc(-c2ccnc3c(C#N)cnn23)c1 [Zaleplon] | 106 ± 8 | –
NCCc1c[nH]c2ccc(O)cc12 [Serotonin hydrochloride] | 102 ± 6 | 84.5%
C[C@]12CC[C@H](O)CC1=CC[C@@H]1[C@@H]2CC[C@@]2(C)[C@H]1CC[C@]2(C)O | 94.8 | –
O=c1cccc2n1CC1CC2CN2CCCCC12 (stereo not given) [Thermopsine] | – | 97.8%
CN1[C@@H](C[C@@H](O)c2ccccc2)CCC[C@H]1C[C@H](O)c1ccccc1 [Lobelanidine hydrochloride] | 113 | –
COc1ccc(C[C@H]2NC[C@H](O)[C@H]2OC(C)=O)cc1 [Anisomycin] | – | 5.34%
CCCN(CCC)CCc1ccc(O)c(O)c1 [Dipropyldopamine hydrobromide] | 94.1 | –
Ic1ccccc1CNC1C2CCN(CC2)C1C(c1ccccc1)c1ccccc1 [L-703,606 oxalate salt hydrate] | 87.9 | –
COc1ccc2c(c1)[nH]c1c(C)nccc12 [Harmine] | 100 | 100%
COc1ccc2c(c1)[nH]c1c(C)nccc12 [Harmine hydrochloride] | 120 | –
OC[C@@H](O)[C@H]1O[C@@H]2O[C@H](C(Cl)(Cl)Cl)O[C@@H]2[C@H]1O | 112 | –
C[N+]12CCC(CC1)C(OC(=O)C(O)(c1ccccc1)c1ccccc1)C2 (stereo not given) | 101 | –
C[N+]12CCC(CC1)C(OC(=O)C(O)(c1ccccc1)c1ccccc1)C2 (stereo not given) [Clidinium bromide] | 71.5 | –
CN1C(=O)CN=C(c2ccccc2)c2cc([N+](=O)[O-])ccc21 [Nimetazepam] | 94.5 | –
CCCN1CCc2cc(O)cc3c2[C@H]1Cc1ccc(O)c(O)c1-3 [R(-)-2,10,11-Trihydroxy-N-propylnoraporphine hydrobromide] | 96.1 | –
CC(CC(C(N)=O)(c1ccccc1)c1ccccc1)N(C)C (stereo not given) | 109 | –
C[C@@]12N[C@@H](Cc3ccccc31)c1ccccc12 [(-)-MK-801 hydrogen maleate] | 119 | –
C[C@@]12N[C@@H](Cc3ccccc31)c1ccccc12 [(-)-MK 801 hydrogen maleate] | 99 | –
C[C@]12CC[C@H]3[C@@H](CCC4=CC(=O)CC[C@@]43C)[C@@H]1CC[C@H]2O [Epitestosterone] | – | 103%
CCCN(CCC)[C@@H]1CCc2cccc(O)c2C1 [R-(+)-8-Hydroxy-DPAT hydrobromide] | 103 | –
C#CCN[C@H](C)Cc1ccccc1 [R-(-)-Desmethyldeprenyl hydrochloride] | 95.6 | –
C[C@H]1C(=O)O[C@@H]2CCN3CC=C(COC(=O)[C@](C)(O)[C@]1(C)O)[C@H]23 [Monocrotaline] | – | 96.1%
COC(=O)C(c1ccccc1)C1CCCCN1 (stereo not given) | 97.8 | –
